According to US20050074879A1, “Antisense oligonucleotide modulation of STAT3 expression” (priority 2000, published 2005):
Some of these results come from one statement about several compounds together. Oligonucleotides are written 5' to 3', each unit as a sugar letter and its base; * is a phosphorothioate linkage, no mark a phosphodiester; rarer units and linkages stand in square brackets, end groups in braces. Plain capitals give the bases only. e = 2'-O-(2-methoxyethyl) (MOE); [5mC] = 5-methylcytosine; d = 2'-deoxy (DNA)

Each substance was assayed on Human STAT3 mRNA (assay: Inhibition of human STAT3 mRNA levels in A549 cells, 75 nM, real-time PCR (Table 13)). Conditions: relative to untreated control cells.
Assay type: cell-based
Outline: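 A549 cells at 65–75% confluency were transfected in duplicate with 75 nM oligonucleotide plus […] Lipofectin for 4–7 h at 37° C and harvested 16–24 h later. STAT3 mRNA was quantified by real-time RT-PCR with primer-probe set PPS 199 and normalized to RiboGreen total RNA. Inhibition is relative to untreated controls.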

Inhibited human STAT3 expression, at least 60%:
SEQ ID NO 176: Table 13 2′-MOE gapmer targeted to human STAT3 (antisense eA*eA*e[5mC]*eT*eG*d[5mC]*d[5mC]*dG*d[5mC]*dA*dG*d[5mC]*dT*d[5mC]*d[5mC]*eA*eT*eT*eG*eG)
SEQ ID NO 276: Table 13 2′-MOE gapmer targeted to human STAT3 (antisense eA*eT*eT*eT*e[5mC]*d[5mC]*dA*dA*dA*d[5mC]*dT*dG*d[5mC]*dA*dT*e[5mC]*eA*eA*eT*eG)
SEQ ID NO 187: Table 13 2′-MOE gapmer targeted to human STAT3 (antisense e[5mC]*e[5mC]*eA*eG*e[5mC]*dA*dT*d[5mC]*dT*dG*d[5mC]*dT*dG*d[5mC]*dT*eT*e[5mC]*eT*e[5mC]*e[5mC])
SEQ ID NO 192: Table 13 2′-MOE gapmer targeted to human STAT3 (antisense eA*eA*eT*e[5mC]*eA*dA*dA*dG*dT*d[5mC]*dA*dT*d[5mC]*d[5mC]*dT*eG*eG*eA*eG*eA)
SEQ ID NO 224: Table 13 2′-MOE gapmer targeted to human STAT3 (antisense eA*eA*eG*eT*eG*dT*dT*dT*dG*dA*dA*dT*dT*d[5mC]*dT*eG*e[5mC]*eA*eG*eA)
SEQ ID NO 239: Table 13 2′-MOE gapmer targeted to human STAT3 (antisense eT*eT*e[5mC]*eT*eT*dG*dG*dG*dA*dT*dT*dG*dT*dT*dG*eG*eT*e[5mC]*eA*eG)
SEQ ID NO 263: Table 13 2′-MOE gapmer targeted to human STAT3 (antisense eT*eA*e[5mC]*eT*eT*dT*d[5mC]*d[5mC]*dG*dA*dA*dT*dG*d[5mC]*d[5mC]*eT*e[5mC]*e[5mC]*eT*e[5mC])
SEQ ID NO 289: Table 13 2′-MOE gapmer targeted to human STAT3 (eA*e[5mC]*e[5mC]*eA*eG*dG*dA*dG*dG*d[5mC]*dA*d[5mC]*dT*dT*dG*eT*e[5mC]*eT*eA*eA)
SEQ ID NO 275: Table 13 2′-MOE gapmer targeted to human STAT3 (antisense e[5mC]*eA*eA*eA*e[5mC]*dT*dG*d[5mC]*dA*dT*d[5mC]*dA*dA*dT*dG*eA*eA*eT*e[5mC]*eT)
SEQ ID NO 228: Table 13 2′-MOE gapmer targeted to human STAT3 (antisense e[5mC]*eT*e[5mC]*eA*eA*dA*dG*dG*dT*dG*dA*dT*d[5mC]*dA*dG*eG*eT*eG*e[5mC]*eA)
SEQ ID NO 286: Table 13 2′-MOE gapmer targeted to human STAT3 (antisense eA*eT*e[5mC]*eA*eT*dG*dG*dG*dT*d[5mC]*dT*d[5mC]*dA*dG*dA*eG*eA*eA*e[5mC]*eA)
SEQ ID NO 169: Table 13 2′-MOE gapmer targeted to human STAT3 (antisense eG*e[5mC]*e[5mC]*eT*eG*dT*d[5mC]*d[5mC]*dA*dG*dG*dA*dT*d[5mC]*d[5mC]*eG*eG*eT*eT*eG)
SEQ ID NO 245: Table 13 2′-MOE gapmer targeted to human STAT3 (antisense e[5mC]*e[5mC]*eT*eT*eG*d[5mC]*d[5mC]*dA*dG*d[5mC]*d[5mC]*dA*dT*dG*dT*eT*eT*eT*e[5mC]*eT)
SEQ ID NO 254: Table 13 2′-MOE gapmer targeted to human STAT3 (antisense eA*eT*eT*eT*e[5mC]*dA*dG*d[5mC]*dA*dA*dA*dT*dG*dA*d[5mC]*eA*eT*eG*eT*eT)
SEQ ID NO 242: Table 13 2′-MOE gapmer targeted to human STAT3 (antisense e[5mC]*eA*eT*eG*eT*dG*dA*dT*d[5mC]*dT*dG*dA*d[5mC]*dA*d[5mC]*e[5mC]*e[5mC]*eT*eG*eA)
SEQ ID NO 207: Table 13 2′-MOE gapmer targeted to human STAT3 (antisense e[5mC]*eA*eG*e[5mC]*e[5mC]*dA*dG*d[5mC]*dT*d[5mC]*d[5mC]*dT*d[5mC]*dG*dT*e[5mC]*e[5mC]*eG*eT*eG)
SEQ ID NO 203: Table 13 2′-MOE gapmer targeted to human STAT3 (antisense eT*e[5mC]*e[5mC]*eA*eG*d[5mC]*dT*dG*d[5mC]*dT*dG*d[5mC]*dA*dT*d[5mC]*eT*eT*e[5mC]*eT*eG)
SEQ ID NO 211: Table 13 2′-MOE gapmer targeted to human STAT3 (antisense eA*e[5mC]*eG*eT*eT*dA*dT*d[5mC]*d[5mC]*dA*dG*dT*dT*dT*dT*e[5mC]*eT*eA*eG*e[5mC])
SEQ ID NO 240: Table 13 2′-MOE gapmer targeted to human STAT3 (antisense eG*eT*e[5mC]*eA*eG*d[5mC]*dT*dG*d[5mC]*dT*d[5mC]*dG*dA*dT*dG*e[5mC]*eT*e[5mC]*eA*eG)
SEQ ID NO 264: Table 13 2′-MOE gapmer targeted to human STAT3 (antisense eG*eA*e[5mC]*eA*eA*dT*dA*d[5mC]*dT*dT*dT*d[5mC]*d[5mC]*dG*dA*eA*eT*eG*e[5mC]*e[5mC])
SEQ ID NO 294: Table 13 2′-MOE gapmer targeted to human STAT3 (eG*e[5mC]*eA*eA*eT*dG*d[5mC]*d[5mC]*dA*dG*dG*dA*dG*dT*dA*eT*eG*eT*eA*eG)
SEQ ID NO 201: Table 13 2′-MOE gapmer targeted to human STAT3 (antisense eT*eG*eG*eT*eT*dG*dT*dT*dT*d[5mC]*d[5mC]*dA*dT*dT*d[5mC]*eA*eG*eA*eT*e[5mC])
SEQ ID NO 290: Table 13 2′-MOE gapmer targeted to human STAT3 (eG*e[5mC]*eA*eG*eG*d[5mC]*dA*d[5mC]*d[5mC]*dA*dG*dG*dA*dG*dG*e[5mC]*eA*e[5mC]*eT*eT)
SEQ ID NO 297: Table 13 2′-MOE gapmer targeted to human STAT3 (eT*eA*eA*eA*eA*dA*dG*dA*dA*dA*d[5mC]*d[5mC]*dT*dA*dG*eG*eG*e[5mC]*eT*eT)
SEQ ID NO 261: Table 13 2′-MOE gapmer targeted to human STAT3 (antisense eG*e[5mC]*e[5mC]*eT*e[5mC]*d[5mC]*dT*d[5mC]*d[5mC]*dT*dT*dG*dG*dG*dA*eA*eT*eG*eT*e[5mC])
SEQ ID NO 180: Table 13 2′-MOE gapmer targeted to human STAT3 (antisense eT*e[5mC]*eG*eT*eA*dG*dA*dT*dT*dG*dT*dG*d[5mC]*dT*dG*eA*eT*eA*eG*eA)
SEQ ID NO 227: Table 13 2′-MOE gapmer targeted to human STAT3 (antisense eA*eG*eG*eT*eG*dA*dT*d[5mC]*dA*dG*dG*dT*dG*d[5mC]*dA*eG*e[5mC]*eT*e[5mC]*e[5mC])
SEQ ID NO 255: Table 13 2′-MOE gapmer targeted to human STAT3 (antisense eT*eG*eA*eT*eG*dA*dT*dT*dT*d[5mC]*dA*dG*d[5mC]*dA*dA*eA*eT*eG*eA*e[5mC])
SEQ ID NO 246: Table 13 2′-MOE gapmer targeted to human STAT3 (antisense eG*eA*eA*eG*e[5mC]*d[5mC]*d[5mC]*dT*dT*dG*d[5mC]*d[5mC]*dA*dG*d[5mC]*e[5mC]*eA*eT*eG*eT)
SEQ ID NO 278: Table 13 2′-MOE gapmer targeted to human STAT3 (antisense eG*eG*eT*eG*eA*dG*dG*dG*dA*d[5mC]*dT*d[5mC]*dA*dA*dA*e[5mC]*eT*eG*e[5mC]*e[5mC])
SEQ ID NO 190: Table 13 2′-MOE gapmer targeted to human STAT3 (antisense e[5mC]*eT*eG*eG*eA*dG*dA*dT*dT*d[5mC]*dT*d[5mC]*dT*dA*d[5mC]*e[5mC]*eA*e[5mC]*eT*eT)
SEQ ID NO 178: Table 13 2′-MOE gapmer targeted to human STAT3 (antisense e[5mC]*eG*e[5mC]*eA*eT*dA*dT*dG*d[5mC]*d[5mC]*d[5mC]*dA*dA*dT*d[5mC]*eT*eT*eG*eA*e[5mC])
SEQ ID NO 197: Table 13 2′-MOE gapmer targeted to human STAT3 (antisense eT*eG*eA*e[5mC]*eT*d[5mC]*dT*dT*dG*dA*dG*dG*dG*dT*dT*eT*eT*eA*eT*eA)
SEQ ID NO 296: Table 13 2′-MOE gapmer targeted to human STAT3 (eG*eG*e[5mC]*eT*eT*dA*dG*dA*dT*dA*dG*dT*d[5mC]*d[5mC]*dT*eA*eT*e[5mC]*eT*eT)
SEQ ID NO 191: Table 13 2′-MOE gapmer targeted to human STAT3 (antisense eA*eA*eG*eT*e[5mC]*dA*dT*d[5mC]*d[5mC]*dT*dG*dG*dA*dG*dA*eT*eT*e[5mC]*eT*e[5mC])
SEQ ID NO 213: Table 13 2′-MOE gapmer targeted to human STAT3 (antisense eT*e[5mC]*eT*eG*eA*dA*dG*dT*dT*dG*dA*dG*dA*dT*dT*e[5mC]*eT*eG*e[5mC]*eT)
